Results are given in words; binding and its absence hold for the method and conditions named. In cells and extracts the contact can be indirect. Some binding calls cover weakened binding; strength is not graded here.
Target: bovine Kv1.4 (bovine) (UniProt Q05037)
Assay: cross-linking; disulfide linkage between subunits in oocytes expressing bKv1.4, untreated or incubated with 1 mM tBHP or 1 mM diamide for 15 min; extracts separated by SDS-PAGE under non-reducing or reducing (100 mM DTT) conditions, Western blot with anti-Kv1.4

Amino acid sequences for entries named in this document (tags omitted).
UniProt Q05037: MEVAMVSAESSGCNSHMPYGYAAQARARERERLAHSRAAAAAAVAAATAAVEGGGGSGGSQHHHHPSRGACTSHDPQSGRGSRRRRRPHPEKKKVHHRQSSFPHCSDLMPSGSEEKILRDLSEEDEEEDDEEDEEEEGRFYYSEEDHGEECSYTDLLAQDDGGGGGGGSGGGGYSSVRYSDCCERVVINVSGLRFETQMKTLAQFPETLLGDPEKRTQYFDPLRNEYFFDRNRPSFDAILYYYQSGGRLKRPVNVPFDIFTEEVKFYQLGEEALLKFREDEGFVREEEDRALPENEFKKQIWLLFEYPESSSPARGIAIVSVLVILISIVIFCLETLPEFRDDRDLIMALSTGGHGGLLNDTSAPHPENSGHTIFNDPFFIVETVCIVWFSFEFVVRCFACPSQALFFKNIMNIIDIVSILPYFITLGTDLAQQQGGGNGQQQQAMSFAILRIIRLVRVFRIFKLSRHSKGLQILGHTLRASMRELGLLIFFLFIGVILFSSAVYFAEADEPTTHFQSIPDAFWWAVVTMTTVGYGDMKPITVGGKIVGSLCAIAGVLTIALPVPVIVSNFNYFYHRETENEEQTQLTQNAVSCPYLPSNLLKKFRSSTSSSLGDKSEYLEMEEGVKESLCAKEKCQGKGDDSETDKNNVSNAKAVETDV

binding: binds
Substance: bovine Kv1.4 (from UniProt Q05037 1-660)

— article PMC3968176
